Test results published in patent US20170189504A1, “NOVEL PEPTIDES AND COMBINATION OF PEPTIDES FOR USE IN IMMUNOTHERAPY AGAINST VARIOUS CANCERS” (immatics biotechnologies GmbH, priority 2015, published 2017).
For some of these results: Expression values are those of the mRNA of the gene that encodes the peptide; a gene is named only where it was looked up.

Tests used:
HLA-A*24 = experiment: Identification and relative LC-MS quantitation of HLA-A*24-presented tumor-associated peptides on tissue samples (presentation profiles, Tables 14A, 14B, 16, FIG. 1); set-up: species or system human; key to Presentation score GC / Presentation score NSCLC / Presentation score PCA / Presentation score GB / Presentation score HCC / Presentation score RCC: specifically presented on tumors (++++); very highly over-presented on tumors compared to a panel of normal tissues (+++); highly over-presented on tumors compared to a panel of normal tissues (++); over-presented on tumors compared to a panel of normal tissues (+); conditions: for Presentation score GB / Presentation score NSCLC / Presentation score RCC / Presentation score GC / Presentation score PCA / Presentation score HCC: HLA-A*24 peptides; for Presentation score GB: glioblastoma (N = 18) vs panel of normal tissues (N = 70); for Presentation score NSCLC: non-small cell lung cancer (N = 91) vs panel of normal tissues (N = 70); for Presentation score RCC: renal cell carcinoma (N = 2) vs panel of normal tissues (N = 70); for Presentation score GC: gastric cancer (N = 44) vs panel of normal tissues (N = 70); for Presentation score PCA: prostate cancer (N = 40) vs panel of normal tissues (N = 70); for Presentation score HCC: hepatocellular carcinoma (N = 15) vs panel of normal tissues (N = 70)
HLA-A*02 = experiment: Identification and relative LC-MS quantitation of HLA-A*02-presented tumor-associated peptides on tissue samples (presentation profiles, Tables 13A, 13B, 15, FIG. 1); set-up: species or system human; key to Presentation score NHL / Presentation score CLL / Presentation score BRCA / Presentation score AML / Presentation score GB / Presentation score NSCLC / Presentation score GBC_CCC / Presentation score UEC / Presentation score MEL / Presentation score OSCAR / Presentation score GC / Presentation score UBC / Presentation score OC / Presentation score RCC / Presentation score CRC / Presentation score PCA / Presentation score HCC / Presentation score PC / Presentation score SCLC: specifically presented on tumors (++++); very highly over-presented on tumors compared to a panel of normal tissues (+++); highly over-presented on tumors compared to a panel of normal tissues (++); over-presented on tumors compared to a panel of normal tissues (+)
source genes (mRNA) [1] = experiment: Expression profiling of source genes by in-house RNASeq of tumor and normal tissues (Table 18, FIG. 2); set-up: species or system human; key: very highly over-expressed in tumors compared to a panel of normal tissues (+++); highly over-expressed in tumors compared to a panel of normal tissues (++); over-expressed in tumors compared to a panel of normal tissues (+); conditions: source gene of peptide
source genes (mRNA) [2] = experiment: Gene and exon expression of source genes, TCGA tumor samples compared with normal tissue samples (Lonsdale, 2013) (Table 17); set-up: species or system human; conditions: same cutoff
[3] = Table 14A, HLA-A*24-binding tumor-associated peptides, cancer entities on which the peptide was found presented
[4] = HLA-A*24-binding peptides, additional cancer entities, GB = glioblastoma, HCC = hepatocellular carcinoma, NSCLC = non-small cell lung cancer, PCA = prostate cancer
[5] = FIG. 1, A*24 positive samples, only samples with presentation shown

Row | Substance | Presentation score GB (HLA-A*24) | Presentation score NSCLC (HLA-A*24) | Peptide Presentation on cancer entities (HLA-A*24; [3]) | Presentation score GC (HLA-A*24) | other results
1 | 159 (LYNKGFIYL; listed as Homo sapiens) [compound 159] | ++++ | ++++ | GB, NSCLC, RCC |  | Presentation score RCC (HLA-A*24): ++++
2 | 161 (IYLVSIPEL; listed as Homo sapiens) [compound 161] |  | ++++ | GC, NSCLC, PCA | ++++ | Presentation score PCA (HLA-A*24): ++++
3 | 163 (DYLKGLASF; listed as Homo sapiens) [compound 163] | ++++ | ++++ | GB, GC, NSCLC | ++++ | Peptide Presentation on cancer entities (HLA-A*24; [4]): PCA
4 | 167 (NYINRILKL; listed as Homo sapiens) [compound 167] |  |  |  | ++++ | Peptide Presentation on cancer entities (HLA-A*24; [4]): NSCLC
5 | 168 (KYQDILETI; listed as Homo sapiens) [compound 168] |  | ++++ | NSCLC, PCA |  | Presentation score PCA (HLA-A*24): ++++
6 | 169 (AYTLIAPNI; listed as Homo sapiens) [compound 169] |  | ++++ | GC, NSCLC, HCC | ++++ | Presentation score HCC (HLA-A*24): ++++
7 | 172 (TYTTVPRVAF; listed as Homo sapiens) [compound 172] | ++++ |  | GB, RCC |  | Presentation score RCC (HLA-A*24): ++++
8 | 173 (IYSWILDHF; listed as Homo sapiens) [compound 173] |  | ++++ | GC, NSCLC, HCC, RCC | ++++ | Presentation score HCC (HLA-A*24): ++++; Presentation score RCC (HLA-A*24): ++++
9 | 174 (VYVGGGQIIHL; listed as Homo sapiens) [compound 174] | ++++ | ++++ | GB, GC, NSCLC | ++++ | 
10 | 175 (YYEVHKELF; listed as Homo sapiens) [compound 175] |  | ++++ | GC, NSCLC, HCC | ++++ | Presentation score HCC (HLA-A*24): ++++
11 | 176 (EYNQWFTKL; listed as Homo sapiens) [compound 176] |  | ++++ | GC, NSCLC | ++++ | 
12 | 178 (IFIEVFSHF; listed as Homo sapiens) [compound 178] |  | ++++ | GC, NSCLC | ++++ | Peptide Presentation on cancer entities (HLA-A*24; [4]): HCC
13 | 179 (MYDSYWRQF; listed as Homo sapiens) [compound 179] | ++++ | ++++ | GB, NSCLC |  | 
14 | 181 (LYLDIINLF; listed as Homo sapiens) [compound 181] |  | ++++ | GC, NSCLC, PCA | ++++ | Presentation score PCA (HLA-A*24): ++++
15 | 182 (IYQLDTASI; listed as Homo sapiens) [compound 182] |  | ++++ | GC, NSCLC, PCA | ++++ | Presentation score PCA (HLA-A*24): ++++
16 | 184 (VFQNFPLLF; listed as Homo sapiens) [compound 184] | ++++ |  | GB, GC | ++++ | Peptide Presentation on cancer entities (HLA-A*24; [4]): NSCLC
17 | 185 (IYKVGAPTI; listed as Homo sapiens) [compound 185] |  | ++++ | NSCLC |  | 
18 | 186 (IFPQFLYQF; listed as Homo sapiens) [compound 186] |  | ++++ | GC, NSCLC | ++++ | 
19 | 190 (GFFIFNERF; listed as Homo sapiens) [compound 190] |  | ++++ | NSCLC, PCA |  | Presentation score PCA (HLA-A*24): ++++
20 | 193 (RFHPTPLLL; listed as Homo sapiens) [compound 193] |  | ++++ | NSCLC, HCC, PCA |  | Presentation score HCC (HLA-A*24): ++++; Presentation score PCA (HLA-A*24): ++++
21 | 194 (EFGSLHLEFL; listed as Homo sapiens) [compound 194] | ++++ |  |  |  | 
22 | 195 (TYSVSFPMF; listed as Homo sapiens) [compound 195] | +++ | + | GB, GC, NSCLC, HCC, PCA |  | number of cell lines where the peptide was found to be presented (HLA-A*24; FIG. 1, A*24 positive samples, cell lines include benign prostate hyperplasias): 3; number of cancer tissues where the peptide was found to be presented (HLA-A*24; [5]): 58; number of normal tissues where the peptide was found to be presented (HLA-A*24; [5]): 1
23 | 196 (LYIDRPLPYL; listed as Homo sapiens) [compound 196] |  |  | GC, NSCLC, HCC, PCA, RCC |  | Presentation score HCC (HLA-A*24): +; Presentation score RCC (HLA-A*24): +
24 | 197 (EYSLFPGQVVI; listed as Homo sapiens) [compound 197] |  |  | GB, GC, NSCLC, HCC, PCA | + | Presentation score PCA (HLA-A*24): +
25 | 294: peptide found in TRPM8 (gene looked up) (GLMKYIGEV; listed as Homo sapiens) [compound 294] |  |  |  |  | Presentation score PCA (HLA-A*02; HLA-A*02 peptides, prostate cancer and benign prostate hyperplasia (N = 39) vs panel of normal tissues (N = 262)): ++++; Peptide Presentation on cancer entities (HLA-A*02; Table 13A, HLA-A*02-binding tumor-associated peptides, cancer entities on which the peptide was found presented): PCA; Expression score GB (source genes (mRNA) [1]; glioblastoma (N = 24) vs panel of normal tissues): +++; Expression score HCC (source genes (mRNA) [1]; hepatocellular carcinoma (N = 15) vs panel of normal tissues): ++; Expression score PC (source genes (mRNA) [1]; pancreatic cancer (N = 26) vs panel of normal tissues): +; Expression score PCA (source genes (mRNA) [1]; prostate cancer and benign prostate hyperplasia (N = 5) vs panel of normal tissues): +++; Expression score SCLC (source genes (mRNA) [1]; small cell lung cancer (N = 10) vs panel of normal tissues): +++; Expression score UEC (source genes (mRNA) [1]; uterine cancer (N = 10) vs panel of normal tissues): +; Over-expression category of source gene (target coverage), CHOL (source genes (mRNA) [2]; CHOL = Cholangiocarcinoma (N = 36)): C (>=5% of tumors above the cutoff, but <20%); Over-expression category of source gene (target coverage), GBM (source genes (mRNA) [2]; GBM = Glioblastoma multiforme (N = 169)): C (>=5% of tumors above the cutoff, but <20%); Over-expression category of source gene (target coverage), KIRP (source genes (mRNA) [2]; KIRP = Papillary kidney carcinoma (N = 291)): C (>=5% of tumors above the cutoff, but <20%); Over-expression category of source gene (target coverage), LIHC (source genes (mRNA) [2]; LIHC = Liver hepatocellular carcinoma (N = 374)): B (>= 20% of tumors above the cutoff, but <50%); Over-expression category of source gene (target coverage), LUAD (source genes (mRNA) [2]; LUAD = Lung adenocarcinoma (N = 517)): C (>=5% of tumors above the cutoff, but <20%); Over-expression category of source gene (target coverage), PRAD (source genes (mRNA) [2]; PRAD = Prostate adenocarcinoma (N = 498)): A (>=50% of tumors above the cutoff); Over-expression category of source gene (target coverage), SKCM (source genes (mRNA) [2]; SKCM = Skin cutaneous melanoma (N = 473)): C (>=5% of tumors above the cutoff, but <20%)
